## Percent effect of library compounds

Amino acid sequences for entries named in this document (tags omitted). Residues count along the entry.
UniProt P9WFT3, whole entry: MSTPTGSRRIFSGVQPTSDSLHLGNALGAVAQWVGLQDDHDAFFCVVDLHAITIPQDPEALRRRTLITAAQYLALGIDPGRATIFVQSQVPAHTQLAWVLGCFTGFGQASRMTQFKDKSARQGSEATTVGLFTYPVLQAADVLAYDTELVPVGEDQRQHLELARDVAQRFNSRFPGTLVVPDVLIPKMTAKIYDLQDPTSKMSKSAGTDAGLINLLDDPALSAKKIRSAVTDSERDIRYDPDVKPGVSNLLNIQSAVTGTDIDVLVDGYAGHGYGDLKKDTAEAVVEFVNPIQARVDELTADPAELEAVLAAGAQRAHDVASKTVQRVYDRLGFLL
UniProt I6X8D2, whole entry: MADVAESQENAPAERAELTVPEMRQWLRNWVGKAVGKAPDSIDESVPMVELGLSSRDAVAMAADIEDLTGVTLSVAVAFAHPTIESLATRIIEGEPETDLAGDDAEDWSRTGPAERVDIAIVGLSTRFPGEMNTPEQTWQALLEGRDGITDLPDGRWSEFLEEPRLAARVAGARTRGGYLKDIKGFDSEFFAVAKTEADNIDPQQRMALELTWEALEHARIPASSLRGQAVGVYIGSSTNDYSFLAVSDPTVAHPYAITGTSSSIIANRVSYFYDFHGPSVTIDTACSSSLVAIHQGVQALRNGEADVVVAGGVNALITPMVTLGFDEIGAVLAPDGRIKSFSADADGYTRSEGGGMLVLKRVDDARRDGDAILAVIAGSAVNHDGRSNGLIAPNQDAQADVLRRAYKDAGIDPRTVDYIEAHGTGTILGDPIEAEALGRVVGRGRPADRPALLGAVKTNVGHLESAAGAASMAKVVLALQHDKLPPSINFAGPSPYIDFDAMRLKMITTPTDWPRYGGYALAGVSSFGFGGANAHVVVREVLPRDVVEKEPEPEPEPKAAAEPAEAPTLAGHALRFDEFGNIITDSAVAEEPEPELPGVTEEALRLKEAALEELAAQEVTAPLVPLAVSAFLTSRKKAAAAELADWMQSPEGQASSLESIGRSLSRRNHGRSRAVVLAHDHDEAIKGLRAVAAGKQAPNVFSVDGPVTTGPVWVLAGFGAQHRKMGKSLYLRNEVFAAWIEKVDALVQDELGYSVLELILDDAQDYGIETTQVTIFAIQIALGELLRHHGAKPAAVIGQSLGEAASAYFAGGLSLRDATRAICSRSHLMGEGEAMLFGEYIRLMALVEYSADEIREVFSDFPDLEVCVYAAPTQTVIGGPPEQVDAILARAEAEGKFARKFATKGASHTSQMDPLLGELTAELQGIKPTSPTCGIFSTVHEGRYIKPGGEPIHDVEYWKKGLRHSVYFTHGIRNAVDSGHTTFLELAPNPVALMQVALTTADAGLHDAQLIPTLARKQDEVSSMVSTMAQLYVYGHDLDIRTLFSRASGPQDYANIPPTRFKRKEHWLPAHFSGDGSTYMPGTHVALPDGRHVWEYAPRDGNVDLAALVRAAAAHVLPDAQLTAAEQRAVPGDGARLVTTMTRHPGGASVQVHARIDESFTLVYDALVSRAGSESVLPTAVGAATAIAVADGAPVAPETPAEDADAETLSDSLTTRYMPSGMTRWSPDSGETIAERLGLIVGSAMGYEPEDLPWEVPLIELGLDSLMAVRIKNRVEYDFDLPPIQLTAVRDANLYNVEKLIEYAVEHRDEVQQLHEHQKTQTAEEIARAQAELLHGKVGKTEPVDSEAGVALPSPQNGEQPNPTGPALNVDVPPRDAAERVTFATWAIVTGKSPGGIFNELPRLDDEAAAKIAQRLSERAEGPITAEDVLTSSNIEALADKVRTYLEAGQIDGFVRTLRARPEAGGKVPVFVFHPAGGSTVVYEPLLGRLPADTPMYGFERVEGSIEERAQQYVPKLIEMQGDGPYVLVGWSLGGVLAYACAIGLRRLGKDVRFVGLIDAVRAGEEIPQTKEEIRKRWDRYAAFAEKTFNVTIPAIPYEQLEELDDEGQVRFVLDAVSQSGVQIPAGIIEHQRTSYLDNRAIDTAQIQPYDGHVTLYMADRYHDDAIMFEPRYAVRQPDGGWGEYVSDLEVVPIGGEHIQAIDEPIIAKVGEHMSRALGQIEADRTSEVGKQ
UniProt A4I591, 1-473: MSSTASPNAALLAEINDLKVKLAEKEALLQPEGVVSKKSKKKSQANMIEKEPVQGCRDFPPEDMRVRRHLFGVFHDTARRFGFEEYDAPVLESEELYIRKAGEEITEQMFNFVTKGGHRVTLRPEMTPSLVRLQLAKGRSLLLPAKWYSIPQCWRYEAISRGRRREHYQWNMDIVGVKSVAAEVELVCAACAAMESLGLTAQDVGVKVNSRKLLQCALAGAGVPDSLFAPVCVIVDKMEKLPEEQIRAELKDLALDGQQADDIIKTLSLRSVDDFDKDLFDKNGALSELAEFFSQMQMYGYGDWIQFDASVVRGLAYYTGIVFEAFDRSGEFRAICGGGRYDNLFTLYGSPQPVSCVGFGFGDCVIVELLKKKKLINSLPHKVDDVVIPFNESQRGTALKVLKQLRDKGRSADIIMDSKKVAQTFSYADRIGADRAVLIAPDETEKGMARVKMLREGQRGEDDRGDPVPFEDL
UniProt Q8IDJ8, 1-583: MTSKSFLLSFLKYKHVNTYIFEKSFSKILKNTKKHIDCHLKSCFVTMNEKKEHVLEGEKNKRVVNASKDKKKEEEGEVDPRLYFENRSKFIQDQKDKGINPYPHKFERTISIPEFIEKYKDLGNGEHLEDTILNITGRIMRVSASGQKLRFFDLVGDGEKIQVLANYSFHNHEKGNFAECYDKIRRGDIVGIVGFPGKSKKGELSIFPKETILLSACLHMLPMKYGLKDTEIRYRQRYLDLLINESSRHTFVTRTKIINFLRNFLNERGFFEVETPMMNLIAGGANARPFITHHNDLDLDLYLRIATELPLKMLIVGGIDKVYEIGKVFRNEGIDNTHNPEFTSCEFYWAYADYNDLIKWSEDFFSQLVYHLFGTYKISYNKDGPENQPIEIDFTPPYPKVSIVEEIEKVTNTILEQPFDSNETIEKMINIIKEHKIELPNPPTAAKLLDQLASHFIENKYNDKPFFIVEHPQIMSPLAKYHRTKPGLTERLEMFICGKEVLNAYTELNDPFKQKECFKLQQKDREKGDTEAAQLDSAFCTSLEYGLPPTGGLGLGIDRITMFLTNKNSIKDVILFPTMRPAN

Data taken from ChEMBL document CHEMBL3988442, “University of Dundee, Small-Polar-MMV Screening Library” (2021).

MtTrpRS: 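Enzyme assay of tryptophanyl-tRNA synthetase; the read-out is not stated. Target: Tryptophan-tRNA ligase, Mycobacterium tuberculosis (UniProt P9WFT3). Tested at 10 µM. Higher most likely means stronger inhibition; the record gives no direction and few retests gave an IC50. Size under these conditions: about 65,000 compounds, about 64 of them at 50% or above in at least one test.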
Pks13 thioesterase: 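Enzyme assay of the thioesterase domain of polyketide synthase 13; the read-out is not stated. Target: Polyketide synthase Pks13, Mycobacterium tuberculosis (UniProt I6X8D2). Concentration: 30 µM. The record gives no direction; the compounds picked for IC50 retests had high values, so higher reads as stronger inhibition. About 67,000 compounds were tested under these conditions; 0.46% (about 300) showed 50% or more at least once.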
LiHisRS: 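Enzyme assay of histidyl-tRNA synthetase; the read-out is not stated. Target: Histidine-tRNA ligase, Leishmania infantum (UniProt A4I591). Compounds at 30 µM. The record gives no direction; compounds that gave an IC50 in retests scored well above the rest, so higher reads as stronger inhibition. The assay is labelled LdHisRS but filed under L. infantum. Of about 69,000 compounds tested this way, about 410 (0.6%) reached 50% or more in at least one test.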
PfKRS1: 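Lysine-tRNA ligase, Plasmodium falciparum 3D7 (UniProt Q8IDJ8). Enzyme assay of the cytosolic lysyl-tRNA synthetase in 384-well plates, read by luminescence. Tested at 30 µM. Higher reads as stronger inhibition, judged from the few compounds that gave an IC50. Of about 69,000 compounds tested this way, about 49 (0.071%) reached 50% or more in at least one test.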

The filed quantity is “Percent Effect” (%).
How 0% and 100% were set is not recorded. Most values in the screen are low, and negative values occur.
The compounds are a random part of those screened.

CCC(CC)(CCO)CNC(=O)c1ccon1 read MtTrpRS: -5.263%; Pks13 thioesterase: -24.97%; LiHisRS: 2.083%; PfKRS1: 0.2324%. CCC(C)NC(=O)CCNC(=O)c1c[nH]cc1-c1cccc(OC)c1 (configuration not stated) gave MtTrpRS: -1.211%; Pks13 thioesterase: -18.6%; LiHisRS: 12.12%; PfKRS1: 2.246%. CC(C)NC(=O)C1CN(C(=O)N2CCCC2)CC12CCOCC2 (configuration not stated) read MtTrpRS: -5.273%; Pks13 thioesterase: -5.117%; LiHisRS: 3.922%; PfKRS1: 4.654%. Result for Cc1ccccc1CN1CC[C@H]2C[C@H](C(=O)N(C)C)O[C@H]2C1 was MtTrpRS: -5.58%; Pks13 thioesterase: -13.29%; LiHisRS: 10.91%; PfKRS1: 1.598%.

With Cc1nc(C2(NCC(=O)NCc3cccs3)CCCCC2)no1 the screen gave MtTrpRS: 4.109%; Pks13 thioesterase: -10.14%; LiHisRS: 17.98%; PfKRS1: 4.594%. Result for Cc1nnc2ccc(OCCNS(C)(=O)=O)nn12 was MtTrpRS: 4.306%; Pks13 thioesterase: 8.567%; LiHisRS: 29.27%; PfKRS1: 0.9258%. For CCn1cnnc1CNC(=O)N(C)Cc1ccc(F)c(F)c1 the result was MtTrpRS: 0.8607%; Pks13 thioesterase: -1.012%; LiHisRS: 14.29%; PfKRS1: 12.28%. With O=C(c1ccccc1F)N1CCN(c2ccc(-n3cccc3)nn2)CC1 the screen gave MtTrpRS: -4.46%; Pks13 thioesterase: -46.4%; LiHisRS: 19.66%; PfKRS1: 3.184%.

Cc1ccc(C)c(C(O)Cn2cc(Cl)c(=O)[nH]c2=O)c1 (configuration not stated) read MtTrpRS: 7.163%; Pks13 thioesterase: -14.32%; LiHisRS: 0%; PfKRS1: -5.139%. Result for Cc1ccc(-n2nc(C)c3c(C)cc(OCC(=O)NC(C)C)nc32)cc1 was MtTrpRS: -5.259%; Pks13 thioesterase: -8.97%; LiHisRS: 10.96%; PfKRS1: 2.86%. For c1ccc(NCc2cn3c(n2)CNCC3)nc1 the result was MtTrpRS: 1.394%; Pks13 thioesterase: -29%; LiHisRS: 30.56%; PfKRS1: 5.122%. Result for O=C(NCCNC(=O)c1scnc1Cl)c1cccs1 was MtTrpRS: -1.371%; Pks13 thioesterase: -2.421%; LiHisRS: 17.24%; PfKRS1: 1.08%.

Result for COc1ccc(-c2cccc(-c3ccn(CC4COCCO4)n3)c2)nn1 (configuration not stated) was MtTrpRS: -3.735%; Pks13 thioesterase: -35.01%; LiHisRS: 13.33%; PfKRS1: 0.7704%. For CC(C)Cn1cc(C(=O)NC2CCS(=O)(=O)C2)c2ccccc2c1=O (configuration not stated) the result was MtTrpRS: 2.524%; Pks13 thioesterase: -11.11%; LiHisRS: 16.48%; PfKRS1: 2.86%. Result for Cc1noc(C(C)N2CCN(Cc3cccc(C#N)c3)CC2)n1 (configuration not stated) was MtTrpRS: -4.617%; LiHisRS: 9.434%; PfKRS1: 4.436%. CNS(=O)(=O)c1cccc(C(C)NCc2ccncc2)c1 (configuration not stated) read MtTrpRS: 1.144%; Pks13 thioesterase: -11.64%; LiHisRS: 8.036%; PfKRS1: 10.25%.

For Cc1ccc(OC2(C(=O)O)CCN(C(=O)c3nc(C)oc3C)CC2)cn1 the result was MtTrpRS: -1.754%; Pks13 thioesterase: -7.216%; LiHisRS: 7.619%; PfKRS1: 0.6661%. With CCNC(=O)CN(CC)C(=O)c1cc(-c2cccc(Cl)c2)no1 the screen gave MtTrpRS: -2.062%; Pks13 thioesterase: -4.09%; LiHisRS: 6.349%; PfKRS1: 5.078%. Result for CCN(C(=O)CCCOC)C(c1ccc(Cl)cc1)c1ccccn1 (configuration not stated) was MtTrpRS: -0.7424%; Pks13 thioesterase: 6.036%; LiHisRS: 7.317%; PfKRS1: -7.091%. Result for Cc1ccoc1-c1nnc(CN2CCn3c(nnc3C(C)C)C2)o1 was MtTrpRS: -0.05959%; Pks13 thioesterase: -7.555%; LiHisRS: 12.07%; PfKRS1: 1.603%.

With CCN(CC)Cc1nnc2sc(-c3cc(C(C)C)[nH]n3)nn12 the screen gave MtTrpRS: -0.06325%; Pks13 thioesterase: -5.146%; LiHisRS: 2.174%; PfKRS1: -0.6424%. For NC(=O)c1cc(C2CC2)nc2ccc(F)cc12 the result was MtTrpRS: 0.8541%; Pks13 thioesterase: 87.85%; LiHisRS: 15.04%; PfKRS1: 7.545%.

Repeated from the top, 2 entries:

{"smiles": "CCC(CC)(CCO)CNC(=O)c1ccon1", "MtTrpRS": -5.263, "Pks13 thioesterase": -24.97, "LiHisRS": 2.083, "PfKRS1": 0.2324}
{"smiles": "CCC(C)NC(=O)CCNC(=O)c1c[nH]cc1-c1cccc(OC)c1", "stereo": "configuration not stated", "MtTrpRS": -1.211, "Pks13 thioesterase": -18.6, "LiHisRS": 12.12, "PfKRS1": 2.246}